At least one peptide structure holds a part that was inferred or is arguable (an end, a ring closure or a residue).
Assays:
[1] = system: Staphylococcus aureus ATCC 6538; test: In vitro antimicrobial activity, Staphylococcus aureus; assay type: cell-based
[2] = system: Pseudomonas aeruginosa ATCC 9027; test: In vitro antimicrobial activity, Pseudomonas aeruginosa; assay type: cell-based
[3] = system: Escherichia coli ATCC 8739; test: In vitro antimicrobial activity, Escherichia coli; assay type: cell-based
[4] = system: Candida albicans ATCC 10231; test: In vitro antimicrobial activity, Candida albicans; assay type: cell-based
[5] = system: Aspergillus niger ATCC 16404; test: In vitro antimicrobial activity, Aspergillus niger; assay type: cell-based
[6] = system: panel of gram-negative and gram-positive bacteria, and fungus; test: In vitro antimicrobial activity, whole panel; assay type: cell-based; conditions: 3.3 mg/ml, 11 μg/ml, 11 ng/ml in 15% Poloxamer 0.9% saline
[7] = system: acne; test: Topical use in a patient with acne; assay type: in vivo, human
Text: A person with a two-year history of acne uses topical 5% peptide (SEQ ID NO:5) formulation twice a day for 4 weeks. The cream formulation is composed of the excipients cetyl alcohol, isopropyl myristate, stearyl alcohol, butylated hydroxytolune, polyoxyethylene stearyl ether, polyoxyethylene stearyl ether, edetate disodium, and purified water.

[8] = system: Tinea Pedis (Athlete's feet); test: Soak and topical use in a patient with Tinea Pedis; assay type: in vivo, human
Text: The cream formulation is composed of the excipients cetyl alcohol, isopropyl myristate, stearyl alcohol, butylated hydrosyxtoluene, polyoxyethylene stearyl ether, polyoxyethylene stearyl ether, edetate disodium, and purified water.

[9] = system: onychomycosis; test: Nail painting in patients with onychomycosis; assay type: in vivo, human; conditions: person
[10] = system: dental caries; test: Mouth wash in a patient with dental caries; assay type: in vivo, human
[11] = system: cold sore outbreak; test: Hydrogel in a patient with cold sore outbreak; assay type: in vivo, human; conditions: person; 1% peptide hydrogel (30% poloxamer) three times a day
[12] = system: genital herpes; test: Cream in a patient with genital herpes; assay type: in vivo, human; conditions: person; 1% peptide cream twice a day for a week
[13] = system: rhinitis; test: Nasal spray in a patient with rhinitis; assay type: in vivo, human; conditions: person, normal saline and 1-5% peptide, three times a day for a week
[14] = system: pink eye; test: Saline formulation in a patient with pink eye; assay type: in vivo, human; conditions: child; normal saline and 1-5% peptide; two days later
[15] = 11 ng/ml (0.0000011% peptide), initial count 7.0 × 10^5
[16] = 11 μg/ml (0.0011% peptide), initial count 7.0 × 10^5
[17] = 3.3 mg/ml (0.33% peptide), initial count 7.4 × 10^5
[18] = 11 ng/ml (0.0000011% peptide), initial count 6.9 × 10^5
[19] = 11 μg/ml (0.0011% peptide), initial count 6.9 × 10^5
[20] = 3.3 mg/ml (0.33% peptide), initial count 5.5 × 10^5
[21] = 11 ng/ml (0.0000011% peptide), initial count 1.6 × 10^5
[22] = 11 μg/ml (0.0011% peptide), initial count 1.6 × 10^5
[23] = 3.3 mg/ml (0.33% peptide), initial count 1.0 × 10^5
[24] = 11 ng/ml (0.0000011% peptide), initial count 4.6 × 10^5
[25] = 11 μg/ml (0.0011% peptide), initial count 4.6 × 10^5
[26] = 3.3 mg/ml (0.33% peptide), initial count 3.0 × 10^5

In the case of `N=C(N)NCCC[C@H](NC(=O)[C@H](CCCNC(=N)N)NC(=O)[C@H](CCCNC(=N)N)NC(=O)[C@H](CCC(N)=O)NC(=O)[C@H](CCCNC(=N)N)NC(=O)[C@H](CCCNC(=N)N)NC(=O)[C@H](CCCCN)NC(=O)[C@H](CCCCN)NC(=O)[C@H](CCCNC(=N)N)NC(=O)CNC(=O)[C@H](CCCCN)NC(=O)[C@H](CCCCN)NC(=O)[C@H](CCCCN)NC(=O)[C@H](CCCCN)NC(=O)[C@H](CCCCN)NC(=O)[C@H](CCCCN)NC(=O)[C@H](CCCCN)NC(=O)[C@H](CCCCN)NC(=O)[C@H](CCCCN)NC(=O)[C@H](CCCCN)NC(=O)[C@H](CCCCN)NC(=O)[C@H](CCCCN)NC(=O)[C@H](CCCCN)NC(=O)[C@H](CCCCN)NC(=O)[C@H](CCCCN)NC(=O)CNC(=O)[C@H](CCCNC(=N)N)NC(=O)[C@H](CCCNC(=N)N)NC(=O)[C@H](CCCNC(=N)N)NC(=O)[C@H](CCC(N)=O)NC(=O)[C@H](CCCNC(=N)N)NC(=O)[C@H](CCCNC(=N)N)NC(=O)[C@H](CCCCN)NC(=O)[C@H](CCCCN)NC(=O)[C@@H](N)CCCNC(=N)N)C(=O)O` [SEQ ID NO:5, Arg-Lys-Lys-Arg-Arg-Gln-Arg-Arg-Arg-Gly-(Lys)15-Gly-Arg-Lys-Lys-Arg-Arg-Gln-Arg-Arg-Arg], the “log reduction at 14 Days” value ([1]; 11 ng/ml (0.0000011% peptide)) is reported as greater than 4.8 log reduction, the “Count at 14 Days” value [1, 15] is reported as less than 10 CFU/ml and the “change in count at 28 Days” value ([1]; 11 ng/ml (0.0000011% peptide)) is reported as “No increase”. For the same compound, the “Count at 28 Days” value [1, 15] was less than 10 CFU/ml, the “log reduction at 14 Days” value ([1]; 11 μg/ml (0.0011% peptide)) was greater than 4.8 log reduction and the “Count at 14 Days” value [1, 16] was less than 10 CFU/ml. For the same compound, the “change in count at 28 Days” value ([1]; 11 μg/ml (0.0011% peptide)) was “No increase”, the “Count at 28 Days” value [1, 16] was less than 10 CFU/ml and the “log reduction at 14 Days” value ([1]; 3.3 mg/ml (0.33% peptide)) was 3.8 log reduction. For the same compound, the “Count at 14 Days” value [1, 17] was 125 CFU/ml, the “change in count at 28 Days” value ([1]; 3.3 mg/ml (0.33% peptide)) was “No increase” and the “Count at 28 Days” value [1, 17] was less than 10 CFU/ml. For the same compound, the “log increase at 14 Days” value ([2]; 11 ng/ml (0.0000011% peptide), 14 Days) was 0.5 log increase, the “Count at 14 Days” value ([2]; 11 ng/ml (0.0000011% peptide), 14 Days, initial count 1.2 × 10^6) was 3.9 × 10^6 CFU/ml and the “change in count at 28 Days” value ([2]; 11 ng/ml (0.0000011% peptide), 28 Days) was “No increase”. For the same compound, the “Count at 28 Days” value ([2]; 11 ng/ml (0.0000011% peptide), 28 Days, initial count 1.2 × 10^6) was 5.6 × 10^6 CFU/ml, the “log increase at 14 Days” value ([2]; 11 μg/ml (0.0011% peptide), 14 Days) was 0.6 log increase and the “Count at 14 Days” value ([2]; 11 μg/ml (0.0011% peptide), 14 Days, initial count 1.2 × 10^6) was 4.3 × 10^6 CFU/ml. The “log increase at 28 Days” value ([2]; 11 μg/ml (0.0011% peptide), 28 Days) was 0.6 log increase, the “Count at 28 Days” value ([2]; 11 μg/ml (0.0011% peptide), 28 Days, initial count 1.2 × 10^6) was 1.7 × 10^7 CFU/ml and the “log reduction at 14 Days” value ([2]; 3.3 mg/ml (0.33% peptide), 14 Days) was greater than 4.0 log reduction. For the same compound, the “Count at 14 Days” value ([2]; 3.3 mg/ml (0.33% peptide), 14 Days, initial count 1.1 × 10^6) was less than 100 CFU/ml, the “change in count at 28 Days” value ([2]; 3.3 mg/ml (0.33% peptide), 28 Days) was “No increase” and the “Count at 28 Days” value ([2]; 3.3 mg/ml (0.33% peptide), 28 Days, initial count 1.1 × 10^6) was less than 100 CFU/ml. The “inhibition of Pseudomonas aeruginosa” value ([2]; 0.33% peptide (Table 1)) was “can be inhibited”, the “log reduction at 14 Days” value ([3]; 11 ng/ml (0.0000011% peptide)) was 1.2 log reduction and the “Count at 14 Days” value [3, 18] was 4.0 × 10^4 CFU/ml. For the same compound, the “change in count at 28 Days” value ([3]; 11 ng/ml (0.0000011% peptide)) was “No increase”, the “Count at 28 Days” value [3, 18] was 860 CFU/ml and the “log reduction at 14 Days” value ([3]; 11 μg/ml (0.0011% peptide)) was 2.6 log reduction. For the same compound, the “Count at 14 Days” value [3, 19] was 1.7 × 10^3 CFU/ml, the “change in count at 28 Days” value ([3]; 11 μg/ml (0.0011% peptide)) was “No increase” and the “Count at 28 Days” value [3, 19] was less than 10 CFU/ml. The “log reduction at 14 Days” value ([3]; 3.3 mg/ml (0.33% peptide)) was greater than 4.7 log reduction, the “Count at 14 Days” value [3, 20] was less than 10 CFU/ml and the “change in count at 28 Days” value ([3]; 3.3 mg/ml (0.33% peptide)) was “No increase”. For the same compound, the “Count at 28 Days” value [3, 20] was less than 10 CFU/ml, the “change in count at 14 Days” value ([4]; 11 ng/ml (0.0000011% peptide)) was “No increase” and the “Count at 14 Days” value [4, 21] was 3.8 × 10^4 CFU/ml. The “change in count at 28 Days” value ([4]; 11 ng/ml (0.0000011% peptide)) was “No increase”, the “Count at 28 Days” value [4, 21] was 3.1 × 10^4 CFU/ml and the “change in count at 14 Days” value ([4]; 11 μg/ml (0.0011% peptide)) was “No increase”. The “Count at 14 Days” value [4, 22] was 2.1 × 10^3 CFU/ml, the “change in count at 28 Days” value ([4]; 11 μg/ml (0.0011% peptide)) was “No increase” and the “Count at 28 Days” value [4, 22] was 1.0 × 10^3 CFU/ml. For the same compound, the “change in count at 14 Days” value ([4]; 3.3 mg/ml (0.33% peptide)) was “No increase”, the “Count at 14 Days” value [4, 23] was less than 10 CFU/ml and the “change in count at 28 Days” value ([4]; 3.3 mg/ml (0.33% peptide)) was “No increase”. The “Count at 28 Days” value [4, 23] was less than 10 CFU/ml, the “change in count at 14 Days” value ([5]; 11 ng/ml (0.0000011% peptide)) was “No increase” and the “Count at 14 Days” value [5, 24] was 2.9 × 10^5 CFU/ml. For the same compound, the “change in count at 28 Days” value ([5]; 11 ng/ml (0.0000011% peptide)) was “No increase”, the “Count at 28 Days” value [5, 24] was 2.6 × 10^5 CFU/ml and the “change in count at 14 Days” value ([5]; 11 μg/ml (0.0011% peptide)) was “No increase”. The “Count at 14 Days” value [5, 25] was 2.5 × 10^5 CFU/ml, the “change in count at 28 Days” value ([5]; 11 μg/ml (0.0011% peptide)) was “No increase” and the “Count at 28 Days” value [5, 25] was 2.2 × 10^5 CFU/ml. For the same compound, the “change in count at 14 Days” value ([5]; 3.3 mg/ml (0.33% peptide)) was “No increase”, the “Count at 14 Days” value [5, 26] was 3.1 × 10^5 CFU/ml and the “change in count at 28 Days” value ([5]; 3.3 mg/ml (0.33% peptide)) was “No increase”. The “Count at 28 Days” value [5, 26] was 3.0 × 10^5 CFU/ml, the “antimicrobial activity over the panel” value [6] was “strong antimicrobial activity in a dose-dependent manner” and the “new breakouts on continued use” value ([7]; continued use of the formulation for two years) was “no new breakouts”. For the same compound, the acne outcome ([7]; person, topical 5% peptide cream twice a day for 4 weeks) was “disappears in two weeks”, the “further breakout on continued use” value ([8]; 0.05% peptide formulation for 5 years) was “no further breakout” and the “Tinea Pedis skin findings by week 4” value ([8]; 5% soak plus topical 1% twice a day, week 4) was “the crusty patches of skin are gone and there is no evidence of abnormal skin on their feet”. The “Tinea Pedis symptoms at week 1” value ([8]; person, 5% soak 10 minutes before bedtime plus topical 1% twice a day, week 1) was “the itchiness reduces and the oozing stops”, the “finger nail appearance after twelve weeks” value ([9]; 5% peptide cream painted on nails twice a day) was “the finger nails that grow in all have normal texture and color” and the “finger nail appearance after twelve weeks” value ([9]; after 1 month oral therapy, 10% peptide cream daily) was “the finger nails that grow in all have normal texture and color”. The “fungal infection and relapse after 2 years” value ([9]; after oral therapy, peptide formulation for 2 years) was “their nails are all free of fungi infection and there is no relapse of additional fungal infection in their toe nails”, the “fungal infection of nails after 2 years” value ([9]; peptide formulation for 2 years) was “their nails are all free of fungal infection” and the dental caries symptoms ([10]; child, mouth wash, normal saline and 1-5% peptide, two weeks) was “significantly relieved”. For the same compound, the “new tooth cavities on continued use” value ([10]; peptide mouth wash for two years) was “no new tooth-cavity observed”, the cold sore outcome [11] was “All core sores disappear within two days” and the genital herpes symptoms [12] was “All symptoms disappear at the end of the treatment period”. For the same compound, the rhinitis symptoms [13] was “immediate relief of symptoms” and the pink eye symptoms [14] was “the symptoms disappear”.

Reference: patent US8623811B2, “Antimicrobial peptide, compositions, and methods of use” (Revance Therapeutics, Inc., priority 2007, dated 2014)
